Laboratory results taken from PubChem BioAssay AID2275 (Broad Institute, 2010).
Hit rate of the full screen: of about 30,000 compounds, about 190 (0.63%) were called active. Inconclusive results, whose numbers are uncertain, are shown with a selection of clear calls. Cut-off read from the data, not from the text of the source: active = viability loss activity score above about 50%; inconclusive = no clear call, values can overlap the other calls; inactive = below about 35%.

Assay: cytotoxicity in HRASV12-transformed BJ fibroblasts – cell-based, luminescence, CellTiterGlo ATP, primary screen (AID 2275);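 note: higher score means fewer live cells and less ATP luminescence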
Details: BJeLR fibroblasts viability, 48 h, active compounds read high, HRASV12, hTERT and SV40 LT/ST transformed, concentration not given here

Compound | viability loss activity score
CSC(SC)=C(C#N)C(=O)c1cccc(C(F)(F)F)c1 | inconclusive: 43.8%
O=C(/C=C/Sc1ccc(Cl)cc1)c1ccccc1 | inconclusive: 47%
CC1=CC(C)(C)N(S(=O)(=O)c2ccc(C)cc2)c2ccccc21 | active: 56.7%
C[C@@H]1O[C@@H](O[C@H]2[C@H](O)[C@@H](O[C@@H]3O[C@H](CO)[C@@H](O)[C@H](O[C@@H]4O[C@H](CO)[C@@H](O)[C@H](O)[C@H]4O)[C@H]3O)[C@H](O[C@H]3CC[C@@]4(C)C(=CC[C@@H]5C4CC[C@@]4(C)C5C[C@@H]5O[C@]6(CC[C@@](C)(CO[C@@H]7O[C@H](CO)[C@@H](O)[C@H](O)[C@H]7O)O6)[C@@H](C)[C@@H]54)C3)O[C@@H]2CO)[C@H](O)[C@H](O)[C@H]1O (some centres not stated) | inconclusive: 43.2%
O=C(/C=C/S(=O)(=O)c1ccc(Cl)cc1)c1ccc(F)cc1 | inconclusive: 41.3%
Nc1nc(Cl)nc2c1ncn2C1OC(CO)[C@H](O)[C@H]1F (some centres not stated) | active: 53.6%
CCOc1ccccc1C(=O)N1CC(C)N(C(=O)c2ccccc2OCC)CC1C (configuration not stated) | inactive: -0.625%
COc1cc(OC)cc(C(=O)N/C(N)=N/c2nc3ccccc3s2)c1 | inconclusive: 48.5%
CN1C(=O)CC[C@H]1c1cccnc1 | inconclusive: 47.5%
COC(=O)Nc1nc2ccc(C(=O)c3cccs3)cc2[nH]1 | inconclusive: 47.1%
COc1ccc2c(c1)OCC(Cc1ccc(OC)c(O)c1)C2=O (configuration not stated) | inconclusive: 46.5%
CN(Cc1ccccc1)S(=O)(=O)c1ccc(C(=O)Nc2ccc(-c3nc4ccccc4[nH]3)cc2)cc1 | inconclusive: 45.4%
COc1ccc(CCCOC(Cn2ccnc2)c2ccc(OC)cc2)cc1 (configuration not stated) | inconclusive: 48.6%
CCOc1ccc(-c2nc3ccc(-c4nc5ccc(N6CCN(C)CC6)cc5[nH]4)cc3[nH]2)cc1 | active: 126%
Cc1cccc(CN2CCC(CNC(=O)c3ccc4c(Cl)c5c(nc4c3)CCCC5)CC2)c1 | inconclusive: 43.6%
Nc1ncnc2c1c(I)cn2C1OC(CO)C(O)C1O (configuration not stated) | active: 63.1%
Cn1c(NC(=O)c2ccccc2NC(=O)c2ccccc2)nc2ccccc21 | inconclusive: 47.8%
CNC[C@H]1Oc2ccc(NC(=O)CCN3CCOCC3)cc2C(=O)N([C@H](C)CO)C[C@H]1C | inconclusive: 30.1%
Cc1ccc(-c2cc(C(F)(F)F)nn2-c2ccc(S(N)(=O)=O)cc2)cc1 | inconclusive: 45.2%
Oc1c(C(c2ccncc2)N2CCCC2)ccc2cccnc12 (configuration not stated) | inactive: 31.5%
Nc1c2c(nc3ccccc13)N(Cc1ccccc1)CC2 | inactive: 5.5%
O=C(Nc1cccc(Cl)c1)c1ccc(CS(=O)c2ccc(Cl)cc2)o1 (configuration not stated) | inactive: -6.54%
CSc1nc2cc(C)nn2c(-c2ccc(C(C)(C)C)cc2)c1C#N | inactive: 0.649%
C[C@@H]1CN([C@@H](C)CO)C(=O)c2cc(NC(=O)c3ccncc3)ccc2O[C@H]1CN(C)Cc1ccc(-c2ccccc2)cc1 | inactive: -1.4%
C[C@H](CO)N1C[C@H](C)[C@@H](CN(C)C(=O)Nc2ccc3c(c2)OCO3)Oc2c(NC(=O)Nc3cccc4ccccc34)cccc2C1=O | inactive: 4.02%

Reformatted: results already given.
Compound,viability loss activity score
C[C@@H]1O[C@@H](O[C@H]2[C@H](O)[C@@H](O[C@@H]3O[C@H](CO)[C@@H](O)[C@H](O[C@@H]4O[C@H](CO)[C@@H](O)[C@H](O)[C@H]4O)[C@H]3O)[C@H](O[C@H]3CC[C@@]4(C)C(=CC[C@@H]5C4CC[C@@]4(C)C5C[C@@H]5O[C@]6(CC[C@@](C)(CO[C@@H]7O[C@H](CO)[C@@H](O)[C@H](O)[C@H]7O)O6)[C@@H](C)[C@@H]54)C3)O[C@@H]2CO)[C@H](O)[C@H](O)[C@H]1O (some centres not stated),inconclusive: 43.2%
Nc1c2c(nc3ccccc13)N(Cc1ccccc1)CC2,inactive: 5.5%
